# Results from one PubChem assay

Source: PubChem BioAssay AID912 (NCATS, 2007).

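Uptake of anthrax lethal toxin into cultured cells, read by FRET (460/530 nm ratio) and reported from the 460 nm channel; the cell line is not named here. Each compound was tested as a concentration series from about 0.0005 to 40 µM. The number is the fitted AC50 of the 460 nm signal alone; lower values mean a more potent effect. A falling signal goes with compounds filed as inhibitors or cytotoxic, a rising one with activators or fluorescent compounds (inferred from the filed classes).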

Values are in nM. Common to all entries: measured here: 460 nm channel. Part of the compounds only, not a random draw; the main read-out is not listed here. Potencies fitted to partial, single-point or poorly fitting curves are rough. The first word of each remark tells which way the curve ran; it can be opposite to the aim of the assay.

| structure | AC50 (nM) | curve as filed |
|---|---|---|
| `COCCN(CC(=O)NCc1ccc(F)cc1)C(=O)CCC(=O)Nc1ccccn1` | 5012 | rising, single point |
| `COCCn1c(=O)c(-c2cccs2)nc2cnc(Nc3ccccc3)nc21` | 6310 | rising, partial curve |
| `N#Cc1nc(COc2ccc(F)cc2)oc1N1CCN(Cc2ccccc2)CC1` | 3162 | falling, full curve, poor fit |
| `CC(=O)c1cccc(N2C(=NC(=O)C(C)C)SC3CS(=O)(=O)CC32)c1` (configuration not stated) | 100 | falling, full curve |
| `Nc1c(C(=O)NCC2CCCO2)c2nc3ccccc3nc2n1-c1ccccc1` (configuration not stated) | 10000 | rising, partial curve |
| `O=C(CNC(=O)c1ccco1)NCC(=O)OCc1ccccc1Br` | 501.2 | falling, full curve, poor fit |
| `O=C(Cn1ncc2c1-c1ccccc1OC2)Nc1nc2ccccc2s1` | 7943 | falling, partial curve |
| `COCCn1c(=O)c(-c2ccccc2)nc2cnc(OCc3ccccc3)nc21` | 794.3 | falling, full curve |
| `Cc1cnc(NC(=O)CN2C(=O)C3CC=CCC3C2=O)s1` (configuration not stated) | 5012 | rising, single point |
| `CCOC(=O)CCc1c(C)nc2ncnn2c1C` | 10000 | rising, single point |
| `CC(=O)Nc1cc2ccc(OC(C)=O)cc2oc1=O` | 10000 | rising, partial curve |
| `c1coc(-c2nn3c(-c4ccco4)nnc3s2)c1` | 5012 | falling, partial curve |
| `COC(=O)c1cccc(NC(=O)Cc2coc3cc(OC)ccc23)c1` | 5012 | rising, single point |
| `CCCn1c(CNC(=O)c2ccccc2)nc2ccccc21` | 2512 | rising, full curve, poor fit |
| `O=C1/C(=C/Nc2ccc3c(c2)OCO3)CCc2ccccc21` | 12589 | falling, partial curve |
| `O=C(NCCc1c[nH]c2ccccc12)c1cnc2sccn2c1=O` | 12589 | falling, partial curve |
| `Cc1cc(=O)[nH]c(SCn2nnc3ccccc3c2=O)n1` | 5012 | rising, partial curve |
| `COc1ccc(S(=O)(=O)Cc2ccc(C(=O)N3CCN(c4cccc(C)c4C)CC3)o2)cc1` | 15848 | falling, partial curve |
| `COc1ccc(OC)c(C(=O)CSc2nnc(Cc3cccs3)n2C)c1` | 398.1 | falling, partial curve |
| `O=C(NCc1ccc2c(c1)OCO2)c1ccc(CS(=O)(=O)c2ccc(Br)cc2)o1` | 10000 | falling, partial curve |
| `COCCNC(=O)CN(C(=O)CCC(=O)Nc1ccccn1)c1ccc(F)c(Cl)c1` | 5012 | rising, single point |
| `Cc1nc2sccn2c(=O)c1CCN1CCC(=C(c2ccccc2)c2ccc(F)cc2)CC1` | 5012 | rising, partial curve, poor fit |
| `Cc1cccc(N2CCN(C(=O)CCCn3c(=S)[nH]c4cc5c(cc4c3=O)OCO5)CC2)c1C` | 5012 | rising, single point |
| `CCOc1cc(NC(=O)c2ccco2)c(OCC)cc1NC(=O)CCc1ccccc1OC` | 31622 | rising, single point |
| `COc1ccc(COC(=O)N/N=C2/C[C@@H](O)[C@@H](O)[C@@H]3[C@@H]4C(=O)N(C[C@@H]5CCCO5)C(=O)[C@H]4CC[C@H]23)cc1` | 794.3 | rising, single point |
| `Cc1sc2ncn(CCn3cnc4sc(C)c(C)c4c3=O)c(=O)c2c1C` | 5012 | falling, single point |
| `COc1ccc(CNc2ncnc3ccc(-c4ccccc4C#N)cc23)c(OC)c1` | 31622 | falling, single point |
| `CCCNC(=O)c1c(N)n(-c2cc(OC)cc(OC)c2)c2nc3ccccc3nc12` | 10000 | rising, partial curve |
| `O=C1c2ccccc2S(=O)(=O)N1CCCCN1CCN(c2ncccn2)CC1` | 3162 | falling, partial curve |
| `COc1ccc(-c2nc3cnc(N(C)C)nc3n(-c3ccccc3)c2=O)cc1` | 2512 | rising, full curve |
| `CCN1C(=O)/C(=C\N2CCN(c3ccccc3)CC2)SC1=S` | 3.981 | rising, full curve, poor fit |
| `COc1cccc(C(=O)CSc2nc3ccccc3n2CC(=O)N2CCOCC2)c1` | 19952 | falling, partial curve, poor fit |
| `O=C(CCCN1CCC2(CC1)C(=O)NCN2c1ccccc1)c1ccc(F)cc1` | 15848 | falling, partial curve |
| `O=C(Cc1ccccc1)Nc1nc(-c2cccs2)cs1` | 6310 | falling, partial curve |
| `NCC[Se][Se]CCN` | 398.1 | falling, full curve |
| `COCC#Cc1ccc(C2C(C)CCC3C(=O)N4C(CCC(C)C4c4ccc(C#CCOC)cc4)C(=O)N32)cc1` (configuration not stated) | 3162 | falling, partial curve |
| `CCOC(=O)C1CCN(C(=O)CSc2nnc(-c3ccco3)n2-c2ccccc2)CC1` | 794.3 | rising, full curve, poor fit |